No constants are given. Whether binding was seen depends on the method and setting. Binding seen in cells or lysates may run through a third protein. Some results given as binding are weak or reduced against the parent protein; the word gives no strength. For some assays here: Sequences can lack the tags named with a protein. Each block holds one molecule with its values, some of them ahead of it.
Experiments:
HA-ERα [1] = target: HA-ERα (UniProt P03372); assay: co-IP; HEK293T cells transfected with ERα, HSD17B7 or shHSD17B7; immunoprecipitation with ERα antibody, blot for CHIP or USP7
HA-ERα [2] = target: HA-ERα (UniProt P03372); assay: co-IP; HEK293T cells cotransfected with HA-ERα and MYC-HSD17B7 (WT or deletion mutant); 400 µg homogenate precipitated with anti-HA or anti-MYC antibody at 4°C overnight, protein A/G agarose, immunoblot
[3] = target: Estrogen receptor (ER) α, endogenous in mouse CD11b+ bone marrow cells (mouse (endogenous in CD11b+ BMCs)) (UniProt P19785); assay: co-IP; CD11b+ Control/cKO BMCs (preosteoclasts) treated with raloxifene (RAL); co-IP and immunoblot of endogenous proteins

Chains of the proteins cited; added tags and fusions are not shown.
UniProt P03372: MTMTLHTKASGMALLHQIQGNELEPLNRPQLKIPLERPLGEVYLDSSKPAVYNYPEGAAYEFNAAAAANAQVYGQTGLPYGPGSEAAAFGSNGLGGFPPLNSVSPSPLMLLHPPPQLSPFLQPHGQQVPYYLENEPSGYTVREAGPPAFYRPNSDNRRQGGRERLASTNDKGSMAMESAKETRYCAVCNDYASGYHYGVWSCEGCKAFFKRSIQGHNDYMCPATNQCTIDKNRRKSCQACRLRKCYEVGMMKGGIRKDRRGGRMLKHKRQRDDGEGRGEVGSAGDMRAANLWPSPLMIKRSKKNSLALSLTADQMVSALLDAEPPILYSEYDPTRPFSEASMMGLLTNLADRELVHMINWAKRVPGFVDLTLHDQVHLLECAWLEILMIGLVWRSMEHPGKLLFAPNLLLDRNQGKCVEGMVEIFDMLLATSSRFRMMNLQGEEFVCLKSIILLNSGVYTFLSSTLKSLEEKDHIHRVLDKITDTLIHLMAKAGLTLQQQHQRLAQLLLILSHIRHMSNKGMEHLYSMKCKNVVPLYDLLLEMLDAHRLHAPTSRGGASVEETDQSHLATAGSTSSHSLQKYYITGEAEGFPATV
UniProt P19785: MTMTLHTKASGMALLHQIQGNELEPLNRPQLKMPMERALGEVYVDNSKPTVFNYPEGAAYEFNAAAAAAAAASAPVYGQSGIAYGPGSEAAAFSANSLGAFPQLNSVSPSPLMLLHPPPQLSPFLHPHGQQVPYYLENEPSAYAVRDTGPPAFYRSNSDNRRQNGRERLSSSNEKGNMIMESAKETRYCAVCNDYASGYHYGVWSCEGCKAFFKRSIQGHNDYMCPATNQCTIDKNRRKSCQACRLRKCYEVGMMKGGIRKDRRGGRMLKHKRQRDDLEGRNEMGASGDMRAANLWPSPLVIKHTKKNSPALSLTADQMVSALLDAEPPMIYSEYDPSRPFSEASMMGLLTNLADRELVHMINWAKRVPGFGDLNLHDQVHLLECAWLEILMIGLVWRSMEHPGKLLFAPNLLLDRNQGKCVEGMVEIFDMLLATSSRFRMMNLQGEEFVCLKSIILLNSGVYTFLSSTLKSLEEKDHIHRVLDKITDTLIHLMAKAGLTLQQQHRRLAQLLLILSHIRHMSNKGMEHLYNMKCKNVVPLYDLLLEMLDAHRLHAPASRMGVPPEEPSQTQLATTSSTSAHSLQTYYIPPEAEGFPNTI
UniProt Q93009: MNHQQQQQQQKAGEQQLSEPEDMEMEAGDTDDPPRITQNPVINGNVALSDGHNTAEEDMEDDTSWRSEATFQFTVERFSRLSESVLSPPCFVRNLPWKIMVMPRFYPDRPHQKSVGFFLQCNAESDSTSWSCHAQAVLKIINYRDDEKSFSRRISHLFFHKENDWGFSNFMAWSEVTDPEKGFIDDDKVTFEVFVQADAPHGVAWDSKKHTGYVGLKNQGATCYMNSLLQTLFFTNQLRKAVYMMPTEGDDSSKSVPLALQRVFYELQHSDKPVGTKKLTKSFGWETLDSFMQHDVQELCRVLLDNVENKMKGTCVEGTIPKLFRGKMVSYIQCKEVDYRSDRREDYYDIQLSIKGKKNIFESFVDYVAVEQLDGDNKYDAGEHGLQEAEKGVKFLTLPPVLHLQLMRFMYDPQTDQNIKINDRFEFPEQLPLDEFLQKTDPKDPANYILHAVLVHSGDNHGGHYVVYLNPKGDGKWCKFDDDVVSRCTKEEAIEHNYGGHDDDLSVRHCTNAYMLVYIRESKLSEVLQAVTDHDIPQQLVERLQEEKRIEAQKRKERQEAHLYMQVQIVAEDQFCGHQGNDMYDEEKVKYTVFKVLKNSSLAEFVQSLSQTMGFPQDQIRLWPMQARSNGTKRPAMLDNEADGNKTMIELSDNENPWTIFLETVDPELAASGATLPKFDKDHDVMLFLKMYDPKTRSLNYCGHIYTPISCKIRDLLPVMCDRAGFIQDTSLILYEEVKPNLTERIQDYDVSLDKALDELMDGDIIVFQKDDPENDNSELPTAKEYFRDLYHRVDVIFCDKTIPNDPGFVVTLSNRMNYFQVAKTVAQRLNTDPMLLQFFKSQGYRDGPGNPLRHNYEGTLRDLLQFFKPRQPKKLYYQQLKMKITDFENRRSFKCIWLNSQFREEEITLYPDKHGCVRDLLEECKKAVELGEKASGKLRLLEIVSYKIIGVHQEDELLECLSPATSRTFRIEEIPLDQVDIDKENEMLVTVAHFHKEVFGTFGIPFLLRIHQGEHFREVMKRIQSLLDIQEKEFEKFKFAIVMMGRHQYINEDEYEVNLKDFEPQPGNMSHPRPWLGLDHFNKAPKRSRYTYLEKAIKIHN
UniProt Q9UNE7: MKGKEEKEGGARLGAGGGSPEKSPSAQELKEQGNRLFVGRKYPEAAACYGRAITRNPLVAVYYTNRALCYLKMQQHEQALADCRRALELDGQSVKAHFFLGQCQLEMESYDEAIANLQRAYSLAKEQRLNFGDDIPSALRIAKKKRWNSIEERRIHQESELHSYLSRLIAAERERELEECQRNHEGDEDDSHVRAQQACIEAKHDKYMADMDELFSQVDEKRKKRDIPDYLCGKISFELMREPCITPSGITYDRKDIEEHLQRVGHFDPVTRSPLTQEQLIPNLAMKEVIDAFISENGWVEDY

B1: HSD17B7 d119-172 (deletion mutant of HSD17B7-MYC) (enzyme, UniProt P56937)
chain: MRKVVLITGASSGIGLALCKRLLAEDDELHLCLACRNMSKAEAVCAALLASHPTAEVTIVQVDVSNLQSVFRASKELKQRFQRLDCIYLNAGIMPNPQLNIKALFFGLFSRKVIHMFSSARKSNFSLEDFQHSKGKEPYSSSKYATDLLSVALNRNFNQQGLYSNVACPGTALTNLTYGILPPFIWTLLMPAILLLRFFANAFTLTPYNGTEALVWLFHQKPESLNPLIKYLSATTGFGRNYIMTQKMDLDEDTAEKFYQKLLELEKHIRVTIQKTDNQARLSGSCL
binding (HA-ERα [2]): binds

B2: HSD17B7 d5-45 (deletion mutant of HSD17B7-MYC) (enzyme, UniProt P56937)
chain: MRKVAALLASHPTAEVTIVQVDVSNLQSVFRASKELKQRFQRLDCIYLNAGIMPNPQLNIKALFFGLFSRKVIHMFSTAEGLLTQGDKITADGLQEVFETNVFGHFILIRELEPLLCHSDNPSQLIWTSSRSARKSNFSLEDFQHSKGKEPYSSSKYATDLLSVALNRNFNQQGLYSNVACPGTALTNLTYGILPPFIWTLLMPAILLLRFFANAFTLTPYNGTEALVWLFHQKPESLNPLIKYLSATTGFGRNYIMTQKMDLDEDTAEKFYQKLLELEKHIRVTIQKTDNQARLSGSCL
binding (HA-ERα [2]): binds

B3: HSD17B7 d192-200 (deletion mutant of HSD17B7-MYC) (enzyme, UniProt P56937)
chain: MRKVVLITGASSGIGLALCKRLLAEDDELHLCLACRNMSKAEAVCAALLASHPTAEVTIVQVDVSNLQSVFRASKELKQRFQRLDCIYLNAGIMPNPQLNIKALFFGLFSRKVIHMFSTAEGLLTQGDKITADGLQEVFETNVFGHFILIRELEPLLCHSDNPSQLIWTSSRSARKSNFSLEDFQHSKGKEDLLSVALNRNFNQQGLYSNVACPGTALTNLTYGILPPFIWTLLMPAILLLRFFANAFTLTPYNGTEALVWLFHQKPESLNPLIKYLSATTGFGRNYIMTQKMDLDEDTAEKFYQKLLELEKHIRVTIQKTDNQARLSGSCL
binding (HA-ERα [2]): binds

B4: 17β-hydroxysteroid dehydrogenase type 7 (HSD17B7), endogenous in mouse CD11b+ bone marrow cells (enzyme, UniProt O88736 1-334)
chain: MRKVVLITGASSGIGLALCGRLLAEDDDLHLCLACRNLSKARAVRDTLLASHPSAEVSIVQMDVSSLQSVVRGAEEVKQKFQRLDYLYLNAGILPNPQFNLKAFFCGIFSRNVIHMFTTAEGILTQNDSVTADGLQEVFETNLFGHFILIRELEPLLCHADNPSQLIWTSSRNAKKANFSLEDIQHSKGPEPYSSSKYATDLLNVALNRNFNQKGLYSSVMCPGVVMTNMTYGILPPFIWTLLLPIMWLLRFFVNALTVTPYNGAEALVWLFHQKPESLNPLTKYASATSGFGTNYVTGQKMDIDEDTAEKFYEVLLELEKRVRTTVQKSDHPS
binding [3]: binds

Results, then the molecule that gave them:

binding (HA-ERα [1]): binds
Molecule: ubiquitin-specific protease 7 (USP7) (from UniProt Q93009 1-1102) (enzyme)

binding (HA-ERα [1]): binds
Molecule: carboxyl terminus of Hsc70-interacting protein (CHIP) (from UniProt Q9UNE7 1-303) (enzyme)

binding (HA-ERα [2]): binds
B5: HSD17B7 d274-302 (deletion mutant of HSD17B7-MYC) (enzyme, UniProt P56937)
chain: MRKVVLITGASSGIGLALCKRLLAEDDELHLCLACRNMSKAEAVCAALLASHPTAEVTIVQVDVSNLQSVFRASKELKQRFQRLDCIYLNAGIMPNPQLNIKALFFGLFSRKVIHMFSTAEGLLTQGDKITADGLQEVFETNVFGHFILIRELEPLLCHSDNPSQLIWTSSRSARKSNFSLEDFQHSKGKEPYSSSKYATDLLSVALNRNFNQQGLYSNVACPGTALTNLTYGILPPFIWTLLMPAILLLRFFANAFTLTPYNGTEALVWLFHDLDEDTAEKFYQKLLELEKHIRVTIQKTDNQARLSGSCL

binding (HA-ERα [2]): binds
B6: MYC-HSD17B7 (enzyme, UniProt P56937 1-341)
chain: MRKVVLITGASSGIGLALCKRLLAEDDELHLCLACRNMSKAEAVCAALLASHPTAEVTIVQVDVSNLQSVFRASKELKQRFQRLDCIYLNAGIMPNPQLNIKALFFGLFSRKVIHMFSTAEGLLTQGDKITADGLQEVFETNVFGHFILIRELEPLLCHSDNPSQLIWTSSRSARKSNFSLEDFQHSKGKEPYSSSKYATDLLSVALNRNFNQQGLYSNVACPGTALTNLTYGILPPFIWTLLMPAILLLRFFANAFTLTPYNGTEALVWLFHQKPESLNPLIKYLSATTGFGRNYIMTQKMDLDEDTAEKFYQKLLELEKHIRVTIQKTDNQARLSGSCL

— article PMC12860897
